# Out of some 330,000 compounds screened, fewer than 10 were called active. This list was built around the results that the source calls inconclusive (neither active nor inactive); the mix of calls is not that of the screen. Calls come from the whole dose curve; as a rule, active = well fitted activation curve with a large enough effect; inconclusive = small, poorly fitted or top-dose-only effect, or another doubt; inactive = no such curve, though single readings can be large or run the other way. Potencies of inconclusive entries are doubtful fits and often do not repeat.
# Assay: Activators of T cell receptors: qHTS campaign; for activation of IL-2 secretion: % of control where 0% means no effect
# Settings: primary human leukocytes, anti-CD3, IL-2 HTRF, 48 h; series mostly up to 9.22 µM; activation of IL-2 secretion: at the top concentration
# From the text: Normally activation of naive T cells requires two signals. 1. A signal through the T cell receptor (TCR) which provides antigen specificity to the response. 2. Signals through co-stimulatory molecules, which are necessary for proliferation, survival and cytokine production. In the absence of co-stimulatory signals T cells are not effectively activated, and may even be rendered anergic or unresponsive to subsequent signaling. This lack of costimulation has been shown in multiple model systems to be a major factor in the limited strength and effectiveness of anti-tumor T cell responses. The goal of this project is to identify small molecule compounds that will stimulate T cell activation in the presence of TCR signaling but in the absence of co-stimulatory signals, thereby allowing activation of naive T cells in the absence of co-stimulation. Identification of such compounds would have clear experimental and clinical applications in instances where desirable antigen-specific immune responses are not generated due to a lack of co-stimulation, for example in the generation of anti-tumor responses. In collaboration between the National Cancer Institute and NIH Chemical Genomics Center, a high-throughput amenable screen was developed to discover small molecules that co-stimulate and activate human T cell receptors. The screen will be carried out using a novel homogeneous time resolved fluorescence energy transfer (HTRF) assay to measure production of the cytokine IL-2 by activated T cells and will be tested against the NIH Molecular Libraries Small Molecule Repository (MLSMR). NIH Chemical Genomics Center [NCGC] NIH Molecular Libraries Probe Centers Network [MLPCN] MLPCN Grant: MH090820-01 Assay Submitter (PI): Richard Hodes, National Cancer Institute, NIH
# Primary human leukocytes are incubated with a-CD3 beads and compounds for 48 hr. The amount of secreted IL-2 is then assayed with a HTRF IL-2 kit. The presence of IL-2 cytokine captures the detection reagents and brings the a-IL-2-K and a-IL-2-d2 into close proximity. Upon excitation with 320nm light, the europium cryptate is capable of transferring energy to acceptor molecules within close proximity, resulting in acceptor molecule emission at 665nm.
SMILES,activation of IL-2 secretion,Potency
CCN(CC)C(=O)c1ccc(NC(=O)c2cccc(C(F)(F)F)c2)cc1,inactive: 2.89%,–
CCOc1ccc(N2C(=O)NC(=O)/C(=C\c3cc(OC)c(OC)cc3[N+](=O)[O-])C2=O)cc1,inactive: 3.41% [at 46.1 µM],–
COc1ccc(C(=O)c2sc3nc(C)cc(-c4cccs4)c3c2N)cc1OC,–,"inconclusive: 12.6 µM [activator, partial curve, poor fit]"
O=C(CNC(=O)c1ccc(Br)cc1)Nc1ccc(Br)cc1C(=O)c1ccccc1,inactive: -3.28% [at 46.1 µM],–
Cc1ccc(OCC(=O)Nc2ccc(Cl)cc2C(=O)c2ccccc2)cc1,–,"inconclusive: 3.98 µM [activator, full curve, poor fit]"
O=C(CN1CCCCC1)c1cccc(Br)c1,–,"inconclusive: 5.01 µM [activator, partial curve, poor fit]"
O=C(Cc1ccccc1)NC(Cc1ccc(Cl)cc1)C(=O)O (configuration not stated),inactive: 8.1%,–
